In patent publication US12123010B2, “Plants having increased tolerance to herbicides” (BASF SE, priority 2017, dated 2024):
Several values for one entry are separate records, joined by “and”; a condition that tells them apart may be missing. Identical values can stand only once. At least one read-out could not be matched to a standard name with certainty.

Test system: Transgenic T2 Arabidopsis plants and ARBTH WT MC24 non-transgenic
Assay: Greenhouse post spray test, injury 14 DAT (Tables ii, iii);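 also: value is percent injury to the sprayed plants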
Assay type: in vivo, Arabidopsis thaliana

SMILES | injury (%) (Table ii, AMATU_PPO2_TP_hemG event R, 50 g ai/ha) | injury (%) (Table ii, AMATU_PPO2_TP_hemG event R, 100 g ai/ha) | injury (%) (Table ii, AMATU_PPO2_TP_hemG event R, 200 g ai/ha) | injury (%) (Table iii, AMATU_PPO2_L397Q_F420V (unnamed lines), 100 g ai/ha) | injury (%) (Table iii, ALOMY_PPO2_R137L_F438V (unnamed lines), 50 g ai/ha) | injury (%) (Table iii, ALOMY_PPO2_R137L_F438V (unnamed lines), 100 g ai/ha) | injury (%) (Table iii, AMATU_PPO2_L397E_F420V (unnamed lines), 50 g ai/ha) | injury (%) (Table iii, AMATU_PPO2_R128A_F420I (unnamed lines), 100 g ai/ha) | injury (%) (Table iii, AMATU_PPO2_R128A_F420L (unnamed lines), 50 g ai/ha) | injury (%) (Table iii, AMATU_PPO2_R128A_F420V (unnamed lines), 50 g ai/ha)
CCOC(=O)COc1ncccc1Oc1nc(-n2c(=O)cc(C(F)(F)F)n(C)c2=O)c(F)cc1Cl [Uracilpyridine 2, ethyl 2-[[3-[[3-chloro-5-fluoro-6-[3-methyl-2,6-dioxo-4-(trifluoromethyl)pyrimidin-1-yl]-2-pyridyl]oxy]-2-pyridyl]oxy]acetate] | 55% and 28% | 33 | 30 | 65 | – | – | – | – | – | –
CCOC(=O)COc1ccccc1Oc1nc(-n2c(=O)cc(C(F)(F)F)n(C)c2=O)c(F)cc1Cl [Uracilpyridine 4, ethyl 2-[2-[[3-chloro-5-fluoro-6-[3-methyl-2,6-dioxo-4-(trifluoromethyl)pyrimidin-1-yl]-2-pyridyl]oxy]phenoxy]acetate] | – | – | – | – | 0% and 10% | 10% and 0% | 0% and 10% | 65% and 50% | 0% and 10% | 70% and 60%
